# From the supplement of paper PMC4604168 (melanoma cell lines)
# Some of the results follow. Single values are uncertain, as repeats are few or missing.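 Cells were imaged in 1,536-well plates, and nuclei stained with an antibody against cleaved PARP were counted against all DNA-stained nuclei to give the apoptosis fraction. Screening doses were chosen to leave most cells alive, and resting and induced cleaved-PARP levels differ strongly between cell lines.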
# What was measured:
# Assay in all cases: cleaved PARP positive nuclei fraction relative to DMSO control; melanoma cells; higher = more apoptosis
# Settings in all cases: library dose: low library concentration; 72 h
# WM115 = system: WM115
# WM1716 = system: WM1716
# WM1745 = system: WM1745
# WM3526 = system: WM3526
# WM3619 = system: WM3619
# WM451Lu = system: WM451Lu
SMILES,cleaved PARP positive nuclei fraction (WM115),cleaved PARP positive nuclei fraction (WM1716),cleaved PARP positive nuclei fraction (WM1745),cleaved PARP positive nuclei fraction (WM3526),cleaved PARP positive nuclei fraction (WM3619),cleaved PARP positive nuclei fraction (WM451Lu)
"Cc1cc(N2CCOCC2)cc2[nH]c(-c3c(NC[C@@H](O)c4cccc(Cl)c4)cc[nH]c3=O)nc12 + N#Cc1c(O)c2c(-c3ccc(-c4ccccc4O)cc3)csc2[nH]c1=O [A769662] (first compound 0.2 µM, partner dose 2 µM)",170%,129%,115%,130%,68%,114%
"CC(C)(C)c1cnc(CSc2cnc(NC(=O)C3CCNCC3)s2)o1 + Cn1cncc1[C@@](N)(c1ccc(Cl)cc1)c1ccc2c(c1)c(-c1cccc(Cl)c1)cc(=O)n2C [tipifarnib] (first compound 0.01 µM, partner dose 0.01 µM)",148%,179%,86.5%,66.2%,115%,280%
"C=CCn1c(=O)c2cnc(Nc3ccc(N4CCN(C)CC4)cc3)nc2n1-c1cccc(C(C)(C)O)n1 + CCN(CC)CCCCNc1ncc2cc(-c3cc(OC)cc(OC)c3)c(NC(=O)NC(C)(C)C)nc2n1 [PD173074] (first compound 0.02 µM, partner dose 0.1 µM)",49.4%,100%,133%,95.2%,138%,94.9%
"NC(=O)Nc1cc(-c2cccc(F)c2)sc1C(=O)N[C@H]1CCCNC1 + Cc1cc([N+](=O)[O-])ccc1NS(=O)(=O)c1cc(Cl)ccc1Cl [FH535] (first compound 0.02 µM, partner dose 1 µM)",85.1%,120%,88%,40.1%,388%,126%
"C=CCn1c(=O)c2cnc(Nc3ccc(N4CCN(C)CC4)cc3)nc2n1-c1cccc(C(C)(C)O)n1 + c1cc(-c2cnn3cc(-c4ccc(OCCN5CCCCC5)cc4)cnc23)ccn1 [Dorsomorphin] (first compound 0.02 µM, partner dose 0.4 µM)",104%,104%,169%,85.1%,99%,99.1%
"CC1(C)NC(=O)N(c2ccc([N+](=O)[O-])c(C(F)(F)F)c2)C1=O [nilutamide] + Cc1cc(N2CCOCC2)cc2[nH]c(-c3c(NC[C@@H](O)c4cccc(Cl)c4)cc[nH]c3=O)nc12 [BMS536924] (first compound 1 µM, partner dose 0.2 µM)",105%,217%,129%,62.8%,88.7%,112%
"C=CCn1c(=O)c2cnc(Nc3ccc(N4CCN(C)CC4)cc3)nc2n1-c1cccc(C(C)(C)O)n1 + CN(NC(=O)CC(=O)NN(C)C(=S)c1ccccc1)C(=S)c1ccccc1 [STA4783] (first compound 0.02 µM, partner dose 0.006 µM)",133%,138%,245%,59.7%,158%,120%
"Cn1nnc2c(C(N)=O)ncn2c1=O [temozolomide] + O=C1NC(=O)/C(=C/c2ccc(-c3ccc(F)cc3O)o2)S1 [AS252424] (first compound 2 µM, partner dose 1 µM)",189%,206%,89.5%,82.5%,80%,43.3%
"O=C(Nc1cccc(Cl)c1)Nc1ncc(CCNc2ncnc3ccsc23)s1 + COc1cc(N2CCC(N3CCN(C)CC3)CC2)ccc1Nc1ncc(Cl)c(Nc2ccccc2S(=O)(=O)C(C)C)n1 [NVP-TAE684] (first compound 0.0008 µM, partner dose 0.08 µM)",412%,74%,122%,137%,91.7%,121%
"Cn1c(Nc2ccc(C(F)(F)F)cc2)nc2cc(Oc3ccnc(-c4ncc(C(F)(F)F)[nH]4)c3)ccc21 + C[C@]1(c2nc3c(C(N)=O)cccc3[nH]2)CCCN1 [Veliparib] (first compound 0.08 µM, partner dose 1.4 µM)",625%,164%,147%,43.3%,177%,220%
"CC1(C)NC(=O)N(c2ccc([N+](=O)[O-])c(C(F)(F)F)c2)C1=O [nilutamide] + COc1cc2c(Oc3ccc4[nH]c(C)cc4c3F)ncnc2cc1OCCCN1CCCC1 [cediranib] (first compound 1 µM, partner dose 0.4 µM)",51.5%,79.2%,87.9%,56%,90.6%,93.7%
"COc1cc(Nc2ncc(F)c(Nc3ccc4c(n3)NC(=O)C(C)(C)O4)n2)cc(OC)c1OC [Tamatinib] + Cc1ccc(NC(=O)c2cccc(N(C)C)c2)cc1NC(=O)c1ccc(O)cc1 [ZM336372] (first compound 0.4 µM, partner dose 2 µM)",80.8%,118%,136%,57.9%,101%,255%
"Cc1ccc(NC(=O)c2cccc(N(C)C)c2)cc1NC(=O)c1ccc(O)cc1 + Cc1cc([N+](=O)[O-])ccc1NS(=O)(=O)c1cc(Cl)ccc1Cl [FH535] (first compound 2 µM, partner dose 1 µM)",93.2%,52.4%,87.7%,70.6%,94.4%,78.9%
"Cc1ccc(NC(=O)c2cccc(N(C)C)c2)cc1NC(=O)c1ccc(O)cc1 + O=C(Nc1ccccc1)c1cc([N+](=O)[O-])ccc1Cl [GW9662] (first compound 2 µM, partner dose 2 µM)",242%,148%,123%,240%,102%,334%
"Cn1nnc2c(C(N)=O)ncn2c1=O [temozolomide] + CN(C)S(=O)(=O)c1ccc2c(c1)/C(=C/c1cc3c([nH]1)CCCC3)C(=O)N2 [SU6656] (first compound 2 µM, partner dose 0.4 µM)",297%,55%,97.9%,113%,100%,110%
"COc1cc(Nc2ncc(F)c(Nc3ccc4c(n3)NC(=O)C(C)(C)O4)n2)cc(OC)c1OC [Tamatinib] + Cc1cc([N+](=O)[O-])ccc1NS(=O)(=O)c1cc(Cl)ccc1Cl [FH535] (first compound 0.4 µM, partner dose 1 µM)",119%,289%,143%,151%,79.7%,179%
"Clc1ccc(Nc2nnc(Cc3ccncc3)c3ccccc23)cc1 [vatalanib] + O=C(Nc1cccc(Cl)c1)Nc1ncc(CCNc2ncnc3ccsc23)s1 [SNS314] (first compound 2 µM, partner dose 0.0008 µM)",60.6%,154%,112%,67.3%,123%,70.2%
"C[C@@H]1CCN(C(=O)CC#N)C[C@@H]1N(C)c1ncnc2[nH]ccc12 + O=C(Nc1ccccc1)c1cc([N+](=O)[O-])ccc1Cl [GW9662] (first compound 1 µM, partner dose 2 µM)",33.9%,69.1%,93%,31.2%,83.4%,33.5%
"Clc1ccc(Nc2nnc(Cc3ccncc3)c3ccccc23)cc1 [vatalanib] + O=C(O)c1ccc(-c2c[nH]c3ncc(-c4ccccc4)cc23)cc1C1CCCC1 [GSK650394] (first compound 2 µM, partner dose 0.16 µM)",23.8%,143%,216%,87.7%,81.3%,98.8%
"O=C(CCCCCCC(=O)Nc1ccccc1)NO [vorinostat] + NCC(=O)Nc1ccc(-n2nc(C(F)(F)F)cc2-c2ccc3c(ccc4ccccc43)c2)cc1 [OSU03012] (first compound 0.08 µM, partner dose 1 µM)",203%,106%,86.9%,257%,155%,80.1%
"C[C@]1(c2nc3c(C(N)=O)cccc3[nH]2)CCCN1 [Veliparib] + Cn1cc(/C=C2\C(=O)Nc3cccnc32)c2ccccc21 [GW441756] (first compound 1.4 µM, partner dose 0.4 µM)",72.6%,104%,108%,72.6%,59.9%,90.5%
"Cc1nc(Nc2ncc(C(=O)Nc3c(C)cccc3Cl)s2)cc(N2CCN(CCO)CC2)n1 [dasatanib] + CC(C)(C)c1cnc(CSc2cnc(NC(=O)C3CCNCC3)s2)o1 [SNS-032] (first compound 0.004 µM, partner dose 0.01 µM)",113%,226%,245%,51.5%,92.4%,501%
"CC(C)(C)c1cnc(CSc2cnc(NC(=O)C3CCNCC3)s2)o1 + NCC(=O)Nc1ccc(-n2nc(C(F)(F)F)cc2-c2ccc3c(ccc4ccccc43)c2)cc1 [OSU03012] (first compound 0.01 µM, partner dose 1 µM)",76.1%,83.8%,107%,86.1%,106%,187%
"Clc1ccc(Nc2nnc(Cc3ccncc3)c3ccccc23)cc1 [vatalanib] + NCC(=O)Nc1ccc(-n2nc(C(F)(F)F)cc2-c2ccc3c(ccc4ccccc43)c2)cc1 [OSU03012] (first compound 2 µM, partner dose 1 µM)",153%,175%,96.8%,106%,84.1%,175%
"O=C(CCCCCCC(=O)Nc1ccccc1)NO [vorinostat] + COc1cc2ncnc(Nc3ccc(Oc4ccccc4)cc3)c2cc1OC [SrcI1] (first compound 0.08 µM, partner dose 2 µM)",45.9%,156%,98.4%,69.6%,80%,28.6%
"OCc1c[nH]c2ccccc12 [Indole-3-carbinol] + Nc1cccc2c1CN(C1CCC(=O)NC1=O)C2=O [lenalidomide] (first compound 0.8 µM, partner dose 1 µM)",83.9%,39.2%,223%,80%,201%,114%
